PubChem BioAssay AID540256 (National Center for Advancing Translational Sciences (NCATS), 2011)
Out of some 300,000 compounds screened, about 3,700 (1.2%) were called active. Inconclusive means that the source gave no clear call. Such entries were picked first, then a sample of the others. Calls come from the whole dose curve; tested in HEK293 cells. Where the call is inconclusive, the potency comes from a doubtful curve fit.

assay: qHTS for Inhibitors of binding or entry into cells for Lassa Virus; conditions: Lassa virus pseudotype entry inhibition, cell reporter; series mostly up to 37.9 µM; note: nearly all actives have a fitted effect of over 50% in size
Potency is the fitted concentration of half-maximal effect.

| SMILES | Potency |
| --- | --- |
| Cc1nn(Cc2ccc(Cl)c(Cl)c2)c(C)c1NC(=O)c1cc(-c2ccc3c(c2)OCO3)on1 | inconclusive: 14.6 µM [inhibitor, partial curve] |
| COc1ccc(-c2cc(-c3ccc(O)cc3)nc(N)c2C#N)cc1OC | inconclusive: 7.94 µM [inhibitor, partial curve, poor fit] |
| CCn1cc(S(=O)(=O)CC(=O)Nc2ccc(C)cc2)c2ccccc21 | inactive |
| O=C(COC(=O)c1ccccc1C(=O)N1CCN(c2ccc(F)cc2)CC1)NCc1ccccc1 | inconclusive: 12.6 µM [inhibitor, partial curve, poor fit] |
| COc1ccc(Cn2c(-c3ccc(OC)cc3)nc3ccccc32)cc1 | inactive |
| CCOC(=O)c1sc2nccc(N(C)C)c2c1N=CNOCc1ccccc1 | inconclusive: 35.5 µM [inhibitor, single point] |
| CC1CC(C)CN(CCOc2cccc(Cl)c2Cl)C1 (configuration not stated) | inconclusive: 3.16 µM [inhibitor, partial curve, poor fit] |
| CC(=O)n1c2c(c3ccccc31)OC(N)=C(C#N)C2c1ccc(C(C)C)cc1 (configuration not stated) | inactive |
| O=C(CSc1nc(-c2cccs2)cc(C(F)(F)F)n1)Nc1cc(OCC(F)(F)C(F)F)cc([N+](=O)[O-])c1 | inconclusive: 25.1 µM [inhibitor, single point] |
| O=c1[nH]c(=O)n(Cc2ccco2)c2c1C(C(F)(F)F)(C(F)(F)F)N=C(Cc1ccccc1)N2 | inactive |
| O=C(CSc1ccc(-c2ccncc2)nn1)N1CCCCC1 | inactive |
| CCOC(=O)c1c(NC(=O)CN2CCCc3ccccc32)sc(C)c1CC | inconclusive: 14.1 µM [inhibitor, single point] |
| COc1ccc(CNC(=O)CN2C(=O)COc3ccccc32)c(OC)c1 | inconclusive: 11.2 µM [activator, single point] |
| Cc1cc(C)nc(N(C#N)Cc2ccc([N+](=O)[O-])cc2)n1 | inactive |
| Cc1cccc(NC(=O)CSCC(=O)N(C)CC(=O)Nc2cccc(F)c2)c1 | inactive |
| Cc1ccc(C2=NC(C)(C)N=C2SCC(=O)Nc2ccc(Cl)cc2)cc1 | inactive |
| COc1ccc(C(=O)CC(=O)C(=O)NCCc2cccc(C)c2)cc1 | inconclusive: 1.26 µM [inhibitor, single point] |
| CCCn1c(=O)[nH]c(=O)c2c1nc(-c1ccc(OC(F)F)c(OC)c1)n2CCOC | inconclusive: 7.94 µM [inhibitor, partial curve] |
| O=C(NN=C1CCCCCC1)c1ccncc1 | inconclusive: 35.5 µM [activator, single point] |
| C/C(=N\Nc1nncc2ccccc12)c1ccc(C(C)(C)C)cc1 | inconclusive: 6.31 µM [activator, single point] |
| Cc1cccc(NS(=O)(=O)c2cc(C(=O)NCc3ccccn3)ccc2C)c1 | inconclusive: 1.58 µM [activator, partial curve, poor fit] |
| Cc1nnc(SC(=O)N2c3ccccc3Sc3ccccc32)s1 | active: 20.6 µM |
| COc1ccccc1Nc1ccc(C(=O)O)cc1[N+](=O)[O-] | inactive |
| COC(=O)c1c(NC(=O)c2cccc(S(=O)(=O)N3CCN(C)CC3)c2)sc(C)c1C | inactive |

| SMILES | Potency |
| --- | --- |
| CC(C)(C)OC(=O)N1CCC[C@H]1c1nnc(SCc2ccccc2Cl)o1 | inconclusive: 35.5 µM [inhibitor, partial curve, poor fit] |
| COc1cccc(C(=O)NC2CC(C)(C)Cc3c2cnn3-c2cccc(F)c2)c1OC (configuration not stated) | inconclusive: 35.5 µM [inhibitor, single point] |
| O=C(Nc1ccccc1C(=O)NCc1ccccc1)c1ccco1 | inactive |
| COc1cc2nc(=S)n(CCCN3CCOCC3)c(N)c2cc1OC | inactive |
| O=C(Nc1cccnc1)c1ccc(COCC(F)(F)F)cc1 | inconclusive: 0.461 µM [inhibitor, partial curve, poor fit] |
| O=S(=O)(Nc1ncccn1)c1ccc(NC(=S)N2CCN(Cc3ccc(F)cc3Cl)CC2)cc1 | inactive |
| O=C(Cc1csc(N2CCOCC2)n1)N/N=C/c1ccc(O)c(O)c1O | inactive |
| CS(=O)(=O)N1CCN(Cc2ccc(C(F)(F)F)cc2)CC1 | inconclusive: 20.6 µM [inhibitor, partial curve, poor fit] |
| COc1ccccc1N1CCN(C(c2ccc(F)cc2)c2nnnn2C(C)C)CC1 (configuration not stated) | inactive |
| O=c1c2cc(Br)ccc2[nH]c(=S)n1Cc1cccnc1 | inactive |
| O=C(Nc1ccc(Oc2cccc3ccccc23)cc1)c1ccco1 | inconclusive: 35.5 µM [inhibitor, single point] |
| CCCCSc1ncc(C(=O)OCC)c(N)n1 | inconclusive: 35.5 µM [inhibitor, single point] |
| COc1ccc(OC)c(C2=Nn3c(nnc3-c3cccc(OC(C)C)c3)SC2)c1 | inconclusive: 0.82 µM [inhibitor, full curve, poor fit] |
| CNc1ncnc2c1cnn2C1CCCCO1 (configuration not stated) | inactive |
| CC1CCc2c(sc3nc(SCC(=O)NCc4ccco4)nc(N)c23)C1 (configuration not stated) | inconclusive: 35.5 µM [inhibitor, single point] |
| Cc1ccc(-n2c(SCC(=O)N3Cc4ccccc4CC3C(=O)O)nnc2-c2cccnc2)c(C)c1 (configuration not stated) | inactive |
| CC1CCCCN1C(=O)COC(=O)CNC(=O)c1ccc(Cl)cc1Cl (configuration not stated) | inactive |
| COc1ccc(CCNC(=O)c2cc(Nc3ccccc3)nc3ccccc23)cc1OC | inconclusive: 12.6 µM [inhibitor, single point] |
| CCCOc1ccc(OC(=O)c2ccc(-c3ccc(CCC)cn3)cc2)cc1 | inactive |
| COc1cc(OC)c(NC(=O)Cn2cccc2)cc1Cl | inactive |
| CCOC(=O)c1cc(-c2ccccc2)sc1NC(=O)CC | inconclusive: 5.62 µM [activator, single point] |
| Cc1c(NC(=O)c2nn(CC(C)C)c(=O)c3ccccc23)c(=O)n(-c2ccccc2)n1C | inconclusive: 1 µM [inhibitor, single point] |
| Cc1sc2ncnc(N3CCN(C(=O)c4ccco4)CC3)c2c1C | inconclusive: 12.6 µM [inhibitor, single point] |

Sorted by count of non-hydrogen atoms (falling): 10 of the compounds above.

| SMILES | Potency |
| --- | --- |
| Cc1ccc(-n2c(SCC(=O)N3Cc4ccccc4CC3C(=O)O)nnc2-c2cccnc2)c(C)c1 (configuration not stated) | inactive |
| O=S(=O)(Nc1ncccn1)c1ccc(NC(=S)N2CCN(Cc3ccc(F)cc3Cl)CC2)cc1 | inactive |
| COc1ccc(CCNC(=O)c2cc(Nc3ccccc3)nc3ccccc23)cc1OC | inconclusive: 12.6 µM [inhibitor, single point] |
| COc1cccc(C(=O)NC2CC(C)(C)Cc3c2cnn3-c2cccc(F)c2)c1OC (configuration not stated) | inconclusive: 35.5 µM [inhibitor, single point] |
| COc1ccccc1N1CCN(C(c2ccc(F)cc2)c2nnnn2C(C)C)CC1 (configuration not stated) | inactive |
| CC1CCc2c(sc3nc(SCC(=O)NCc4ccco4)nc(N)c23)C1 (configuration not stated) | inconclusive: 35.5 µM [inhibitor, single point] |
| COc1cc2nc(=S)n(CCCN3CCOCC3)c(N)c2cc1OC | inactive |
| Cc1sc2ncnc(N3CCN(C(=O)c4ccco4)CC3)c2c1C | inconclusive: 12.6 µM [inhibitor, single point] |
| O=C(Nc1cccnc1)c1ccc(COCC(F)(F)F)cc1 | inconclusive: 0.461 µM [inhibitor, partial curve, poor fit] |
| O=c1c2cc(Br)ccc2[nH]c(=S)n1Cc1cccnc1 | inactive |
